Drawing on the supplement of paper PMC10849652, this text covers log2 fold change for 38 targets.

Protein sequences, listed by entry. Tags and fused reporters are not part of them. Lines headed by an entry give the natural chain unless they say otherwise; changes in a name come on top.
UniProt Q9NXK8: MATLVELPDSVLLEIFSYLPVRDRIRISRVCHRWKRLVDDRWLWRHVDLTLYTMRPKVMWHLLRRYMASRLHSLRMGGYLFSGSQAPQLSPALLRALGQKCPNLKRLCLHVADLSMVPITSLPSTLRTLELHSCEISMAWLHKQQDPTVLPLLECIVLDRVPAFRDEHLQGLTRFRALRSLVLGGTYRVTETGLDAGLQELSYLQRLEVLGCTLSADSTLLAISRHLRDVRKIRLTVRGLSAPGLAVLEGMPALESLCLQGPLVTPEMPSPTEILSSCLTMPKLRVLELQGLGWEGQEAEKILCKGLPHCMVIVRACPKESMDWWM
UniProt P31995: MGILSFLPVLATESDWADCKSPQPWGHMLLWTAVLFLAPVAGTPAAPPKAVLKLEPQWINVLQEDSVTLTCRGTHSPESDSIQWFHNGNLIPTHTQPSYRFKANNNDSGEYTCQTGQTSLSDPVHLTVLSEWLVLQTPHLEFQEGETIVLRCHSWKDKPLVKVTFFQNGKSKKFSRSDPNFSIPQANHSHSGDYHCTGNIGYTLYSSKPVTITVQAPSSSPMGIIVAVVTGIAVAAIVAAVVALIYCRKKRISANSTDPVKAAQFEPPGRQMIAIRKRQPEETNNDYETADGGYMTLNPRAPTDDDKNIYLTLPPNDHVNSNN
UniProt Q8NB91: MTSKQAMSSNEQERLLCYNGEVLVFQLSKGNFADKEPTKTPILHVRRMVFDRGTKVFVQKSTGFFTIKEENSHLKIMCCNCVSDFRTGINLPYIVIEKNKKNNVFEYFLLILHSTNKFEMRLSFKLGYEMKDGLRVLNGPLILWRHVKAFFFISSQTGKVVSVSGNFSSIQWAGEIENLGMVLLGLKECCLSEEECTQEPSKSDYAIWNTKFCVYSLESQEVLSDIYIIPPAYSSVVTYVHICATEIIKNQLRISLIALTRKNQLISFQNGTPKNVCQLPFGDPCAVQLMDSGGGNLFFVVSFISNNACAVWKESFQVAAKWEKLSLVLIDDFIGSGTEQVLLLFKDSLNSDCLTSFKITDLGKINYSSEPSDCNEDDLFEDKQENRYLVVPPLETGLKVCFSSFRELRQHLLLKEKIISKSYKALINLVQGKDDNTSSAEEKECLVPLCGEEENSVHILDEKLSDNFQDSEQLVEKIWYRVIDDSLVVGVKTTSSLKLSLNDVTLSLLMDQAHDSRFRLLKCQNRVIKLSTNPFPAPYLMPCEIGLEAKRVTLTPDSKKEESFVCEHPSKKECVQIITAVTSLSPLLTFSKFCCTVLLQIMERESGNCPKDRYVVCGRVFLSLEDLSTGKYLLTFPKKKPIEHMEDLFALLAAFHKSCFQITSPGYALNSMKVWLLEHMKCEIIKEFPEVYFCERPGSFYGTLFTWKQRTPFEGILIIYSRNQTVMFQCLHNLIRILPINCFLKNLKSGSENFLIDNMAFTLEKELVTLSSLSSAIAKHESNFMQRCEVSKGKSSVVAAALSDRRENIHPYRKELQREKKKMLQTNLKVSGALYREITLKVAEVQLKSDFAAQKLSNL
UniProt Q9NUQ9: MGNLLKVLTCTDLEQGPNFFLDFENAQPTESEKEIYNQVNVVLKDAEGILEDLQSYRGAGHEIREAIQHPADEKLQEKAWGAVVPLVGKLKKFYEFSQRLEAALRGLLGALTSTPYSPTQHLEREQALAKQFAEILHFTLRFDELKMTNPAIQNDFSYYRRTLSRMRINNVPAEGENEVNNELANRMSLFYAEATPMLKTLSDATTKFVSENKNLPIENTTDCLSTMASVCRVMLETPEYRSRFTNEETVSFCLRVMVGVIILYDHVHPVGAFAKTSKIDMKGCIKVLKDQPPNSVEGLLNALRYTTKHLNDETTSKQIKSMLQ
UniProt Q96ND0: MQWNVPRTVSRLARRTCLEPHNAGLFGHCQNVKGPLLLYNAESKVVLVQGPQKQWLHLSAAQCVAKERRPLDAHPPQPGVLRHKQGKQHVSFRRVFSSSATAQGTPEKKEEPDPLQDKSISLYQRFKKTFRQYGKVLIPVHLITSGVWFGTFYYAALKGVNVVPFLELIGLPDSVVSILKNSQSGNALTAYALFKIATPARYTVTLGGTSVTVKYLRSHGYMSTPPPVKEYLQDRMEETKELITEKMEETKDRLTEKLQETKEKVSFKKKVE
UniProt P26885: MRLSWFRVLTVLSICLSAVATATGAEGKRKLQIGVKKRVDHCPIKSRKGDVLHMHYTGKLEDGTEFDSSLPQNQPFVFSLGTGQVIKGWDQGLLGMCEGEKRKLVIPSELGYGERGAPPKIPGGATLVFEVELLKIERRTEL
UniProt Q8N3X1: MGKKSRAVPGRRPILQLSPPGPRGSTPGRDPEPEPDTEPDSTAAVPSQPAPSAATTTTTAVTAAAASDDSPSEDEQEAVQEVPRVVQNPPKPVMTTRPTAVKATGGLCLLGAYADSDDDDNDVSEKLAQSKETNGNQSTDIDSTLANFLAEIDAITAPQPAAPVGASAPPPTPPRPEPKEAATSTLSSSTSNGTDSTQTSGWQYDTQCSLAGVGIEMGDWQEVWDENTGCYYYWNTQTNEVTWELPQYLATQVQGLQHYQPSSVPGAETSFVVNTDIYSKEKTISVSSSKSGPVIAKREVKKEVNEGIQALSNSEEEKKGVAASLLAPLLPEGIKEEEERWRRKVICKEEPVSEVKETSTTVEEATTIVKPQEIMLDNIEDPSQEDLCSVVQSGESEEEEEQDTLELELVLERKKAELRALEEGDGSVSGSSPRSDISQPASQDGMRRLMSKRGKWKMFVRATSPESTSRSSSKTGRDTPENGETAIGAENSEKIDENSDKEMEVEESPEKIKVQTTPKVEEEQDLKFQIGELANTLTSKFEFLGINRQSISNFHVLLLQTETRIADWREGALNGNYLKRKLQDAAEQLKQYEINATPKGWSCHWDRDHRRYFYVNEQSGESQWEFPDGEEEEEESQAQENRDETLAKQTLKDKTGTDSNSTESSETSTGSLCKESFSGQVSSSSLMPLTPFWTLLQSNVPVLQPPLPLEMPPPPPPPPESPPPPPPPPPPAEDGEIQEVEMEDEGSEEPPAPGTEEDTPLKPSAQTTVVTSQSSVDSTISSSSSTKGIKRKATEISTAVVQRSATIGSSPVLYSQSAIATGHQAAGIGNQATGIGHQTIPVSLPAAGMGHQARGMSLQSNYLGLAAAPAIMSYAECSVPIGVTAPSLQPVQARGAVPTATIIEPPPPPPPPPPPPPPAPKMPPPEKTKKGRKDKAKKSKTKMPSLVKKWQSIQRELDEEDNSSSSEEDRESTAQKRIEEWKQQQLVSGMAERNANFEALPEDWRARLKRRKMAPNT
UniProt Q96IG2: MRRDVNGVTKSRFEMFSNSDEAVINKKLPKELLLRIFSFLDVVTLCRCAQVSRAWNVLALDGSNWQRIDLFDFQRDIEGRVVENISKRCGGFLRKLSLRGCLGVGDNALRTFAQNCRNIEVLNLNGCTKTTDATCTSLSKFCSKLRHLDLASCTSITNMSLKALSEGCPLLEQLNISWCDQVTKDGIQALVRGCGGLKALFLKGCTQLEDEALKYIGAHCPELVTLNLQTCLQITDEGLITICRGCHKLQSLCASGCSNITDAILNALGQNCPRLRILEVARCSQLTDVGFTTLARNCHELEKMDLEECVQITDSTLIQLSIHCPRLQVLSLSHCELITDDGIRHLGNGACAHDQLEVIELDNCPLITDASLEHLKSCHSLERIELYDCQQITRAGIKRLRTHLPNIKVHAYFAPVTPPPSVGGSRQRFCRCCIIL
UniProt Q96ME1: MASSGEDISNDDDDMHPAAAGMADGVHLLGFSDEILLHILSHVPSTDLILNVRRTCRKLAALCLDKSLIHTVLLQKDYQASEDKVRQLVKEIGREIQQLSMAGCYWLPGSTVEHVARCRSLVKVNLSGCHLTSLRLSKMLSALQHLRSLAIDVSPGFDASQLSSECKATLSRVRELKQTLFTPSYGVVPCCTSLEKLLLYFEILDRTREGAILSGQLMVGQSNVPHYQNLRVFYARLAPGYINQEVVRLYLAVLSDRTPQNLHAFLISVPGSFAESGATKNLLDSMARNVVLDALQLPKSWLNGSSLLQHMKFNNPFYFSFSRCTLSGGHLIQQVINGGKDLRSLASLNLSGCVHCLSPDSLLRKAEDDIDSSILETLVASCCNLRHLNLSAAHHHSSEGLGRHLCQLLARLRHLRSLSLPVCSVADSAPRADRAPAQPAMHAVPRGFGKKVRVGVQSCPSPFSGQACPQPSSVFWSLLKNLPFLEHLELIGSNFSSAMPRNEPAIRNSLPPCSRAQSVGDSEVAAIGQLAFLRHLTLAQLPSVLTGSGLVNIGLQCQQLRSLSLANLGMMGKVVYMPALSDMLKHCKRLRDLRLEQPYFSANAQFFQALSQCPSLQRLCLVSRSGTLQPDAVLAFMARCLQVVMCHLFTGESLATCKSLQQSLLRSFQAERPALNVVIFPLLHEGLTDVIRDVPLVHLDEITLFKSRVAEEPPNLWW
UniProt Q96CP2: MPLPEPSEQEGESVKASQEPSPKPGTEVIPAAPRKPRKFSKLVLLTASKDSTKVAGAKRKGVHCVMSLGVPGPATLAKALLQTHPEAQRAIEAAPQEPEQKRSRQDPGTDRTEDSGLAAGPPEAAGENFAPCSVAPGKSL
UniProt Q5HYJ3: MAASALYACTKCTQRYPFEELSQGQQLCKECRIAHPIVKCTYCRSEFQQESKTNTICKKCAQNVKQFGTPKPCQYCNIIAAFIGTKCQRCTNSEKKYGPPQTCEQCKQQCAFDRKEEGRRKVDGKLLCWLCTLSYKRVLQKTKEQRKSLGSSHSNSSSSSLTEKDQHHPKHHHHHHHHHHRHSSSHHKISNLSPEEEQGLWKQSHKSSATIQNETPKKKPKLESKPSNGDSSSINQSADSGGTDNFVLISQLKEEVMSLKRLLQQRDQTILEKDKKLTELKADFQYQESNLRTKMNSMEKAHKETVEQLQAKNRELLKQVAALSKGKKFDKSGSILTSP
UniProt P62942, whole entry, looked up: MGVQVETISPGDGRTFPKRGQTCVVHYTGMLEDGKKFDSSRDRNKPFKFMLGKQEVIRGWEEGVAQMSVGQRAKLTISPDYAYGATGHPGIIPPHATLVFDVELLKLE
UniProt A6NHQ2: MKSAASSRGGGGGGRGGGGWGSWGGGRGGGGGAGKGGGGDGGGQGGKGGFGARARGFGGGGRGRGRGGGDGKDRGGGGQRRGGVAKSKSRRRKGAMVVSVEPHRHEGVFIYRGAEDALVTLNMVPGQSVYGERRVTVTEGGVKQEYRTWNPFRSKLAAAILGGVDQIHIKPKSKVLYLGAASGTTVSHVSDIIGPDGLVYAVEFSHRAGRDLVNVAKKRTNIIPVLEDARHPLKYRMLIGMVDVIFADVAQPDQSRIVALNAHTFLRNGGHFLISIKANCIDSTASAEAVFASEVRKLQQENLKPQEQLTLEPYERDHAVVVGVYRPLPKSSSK
UniProt Q9NSD9: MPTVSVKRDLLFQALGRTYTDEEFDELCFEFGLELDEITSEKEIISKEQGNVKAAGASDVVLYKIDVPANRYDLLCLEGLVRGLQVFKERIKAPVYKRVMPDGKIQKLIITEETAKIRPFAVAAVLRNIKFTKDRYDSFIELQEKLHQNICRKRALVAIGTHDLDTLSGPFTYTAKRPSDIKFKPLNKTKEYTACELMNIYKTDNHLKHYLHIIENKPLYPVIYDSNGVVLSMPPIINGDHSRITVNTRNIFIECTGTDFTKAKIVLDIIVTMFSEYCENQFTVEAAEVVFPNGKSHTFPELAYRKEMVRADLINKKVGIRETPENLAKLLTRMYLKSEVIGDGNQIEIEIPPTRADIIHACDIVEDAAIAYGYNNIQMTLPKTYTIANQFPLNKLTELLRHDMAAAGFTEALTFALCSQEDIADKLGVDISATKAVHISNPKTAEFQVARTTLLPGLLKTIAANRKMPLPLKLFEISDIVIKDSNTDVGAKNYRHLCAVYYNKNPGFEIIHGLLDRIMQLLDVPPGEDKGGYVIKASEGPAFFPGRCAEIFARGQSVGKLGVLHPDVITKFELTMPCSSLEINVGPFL
UniProt Q9H479: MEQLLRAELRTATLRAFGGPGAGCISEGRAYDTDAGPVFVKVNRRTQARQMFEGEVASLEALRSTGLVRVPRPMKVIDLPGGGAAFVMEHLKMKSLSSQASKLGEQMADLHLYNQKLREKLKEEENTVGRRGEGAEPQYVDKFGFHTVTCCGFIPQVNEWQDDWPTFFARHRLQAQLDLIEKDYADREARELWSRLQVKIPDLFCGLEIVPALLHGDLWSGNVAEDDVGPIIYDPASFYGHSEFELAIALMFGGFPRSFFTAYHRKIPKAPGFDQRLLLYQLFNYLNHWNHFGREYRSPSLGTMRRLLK
UniProt Q6P4F2: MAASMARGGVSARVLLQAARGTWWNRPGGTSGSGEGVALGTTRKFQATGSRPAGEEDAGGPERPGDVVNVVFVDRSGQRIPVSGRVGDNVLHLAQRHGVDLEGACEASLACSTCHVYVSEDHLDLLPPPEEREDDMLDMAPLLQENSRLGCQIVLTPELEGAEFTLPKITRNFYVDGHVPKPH
UniProt Q9Y421: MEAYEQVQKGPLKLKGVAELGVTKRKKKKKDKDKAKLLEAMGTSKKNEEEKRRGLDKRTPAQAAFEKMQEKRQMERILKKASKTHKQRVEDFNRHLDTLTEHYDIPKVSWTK

Some of the results follow.

Compound in the first experiment: CCCCN(Cc1ccc(C(=O)NO)cc1)C(=O)Nc1ccccc1 [Nexturastat A]
As to the kind of experiment: log2 fold change, soluble protein after heating vs DMSO (PISA); higher = thermal stabilisation; K562 cells, 10 uM, 30 min; active = over 0.2 and 3.5 SD of the protein, either way, in both replicates (recomputed). A digest of the protocol: (§1)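 For each measurement, 10 μM compound was applied for 30 min to K562 cells at 2×10^6 cells/mL. Aliquots were heated for 3 min across 48°C-58°C, pooled, and extracted in PBS with 0.5% NP-40 at 4°C; the supernatant after 21,000xg for 90 min was soluble protein. This was quantified by TMTpro 16plex LC-MS/MS with channel sums equalised, and thermal stability was reported relative to control samples from duplicates, on a log2 fold-change scale.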
For FDX1 (UniProt P10109), the log2 fold change was inactive: -0.041.
With FBXL12 (UniProt Q9NXK8), the log2 fold change is inactive: -0.005.
The same measure, in the same setting: in the case of FKBPL (UniProt Q9UIM3) it was inactive: 0; in that of FCGR2C (UniProt P31995), inactive: -0.013; in that of FANCB (UniProt Q8NB91), inactive: -0.065.
On the same count and under the same terms, in the case of FIP1L1 (UniProt Q6UN15) it was inactive: 0.142; in that of FLVCR1 (UniProt Q9Y5Y0), inactive: -0.064.
Same read-out and setting: in the case of FAM49B (UniProt Q9NUQ9) it was inactive: -0.115; in that of FAM210A (UniProt Q96ND0), inactive: 0.008; in that of FBXO30 (UniProt Q8TB52), inactive: -0.146.
With FKBP2 (UniProt P26885), the log2 fold change is inactive: -0.011.
Regarding FKBP15 (UniProt Q5T1M5), the log2 fold change was inactive: 0.022.
On the same count and under the same terms, the value for FAR1 (UniProt Q8WVX9) was inactive: -0.016; that for FH (UniProt P07954) was inactive: -0.105.
On the same count and under the same terms, in the case of FLII (UniProt Q13045) it was inactive: 0.013.
Same read-out and setting: in the case of FNBP4 isoform 2 (UniProt Q8N3X1) it was inactive: -0.004; in that of FAM98B (UniProt Q52LJ0), inactive: 0.022; in that of FBXL20 (UniProt Q96IG2), inactive: 0.176.
Turning to FBXL18 isoform 4 (UniProt Q96ME1), the log2 fold change is inactive: -0.04.
Same read-out and setting: in the case of FLYWCH2 (UniProt Q96CP2) it was inactive: -0.092; in that of FAM76B (UniProt Q5HYJ3), inactive: 0.018.
Turning to FASN (UniProt P49327), the log2 fold change is inactive: -0.091.
On the same count and under the same terms, in the case of FKBP1A (UniProt P62942) it was inactive: -0.023; in that of FBLL1 (UniProt A6NHQ2), inactive: 0.422; in that of FBXO5 (UniProt Q9UKT4), inactive: -0.004.
On the same count and under the same terms, in the case of FARSB (UniProt Q9NSD9) it was inactive: 0.002; in that of FLOT1 (UniProt O75955), inactive: 0.297.
For the target FCSK isoform 2 (UniProt Q8N0W3), the log2 fold change was inactive: -0.008.
On the same count and under the same terms, in the case of FBXO22 (UniProt Q8NEZ5) it was inactive: -0.059; in that of FN3K (UniProt Q9H479), inactive: -0.013; in that of FCGR2A (UniProt P12318), inactive: 0.07.
As for FN3KRP (UniProt Q9HA64), the log2 fold change is inactive: -0.015.
On the same count and under the same terms, in the case of FAM98A (UniProt Q8NCA5) it was inactive: 0.23; in that of FKBP9 (UniProt O95302), inactive: 0.014; in that of FAU (UniProt P62861), inactive: 0.128.
For the target FKBP5 (UniProt Q13451), the log2 fold change was inactive: 0.109.
Same read-out and setting: the value for FDX2 (UniProt Q6P4F2) was inactive: 0.103; that for FAM32A (UniProt Q9Y421) was inactive: 0.033.

Compound in the next experiment: CCCS(=O)(=O)Nc1ccc(F)c(C(=O)c2c[nH]c3ncc(-c4ccc(Cl)cc4)cc23)c1F [vemurafenib]
The description is as above. A digest of the protocol: as §1
As to FDX1 (UniProt P10109), the log2 fold change was inactive: -0.028.
Same read-out and setting: the value for FBXL12 (UniProt Q9NXK8) was inactive: 0.054.
As to FKBPL (UniProt Q9UIM3), the log2 fold change is inactive: -0.017.
The same measure, in the same setting: the value for FCGR2C (UniProt P31995) was inactive: 0.011; that for FANCB (UniProt Q8NB91) was inactive: -0.028; that for FIP1L1 (UniProt Q6UN15) was inactive: -0.042.
Still for that read-out and setting: in the case of FLVCR1 (UniProt Q9Y5Y0) it was inactive: -0.019; in that of FAM49B (UniProt Q9NUQ9), inactive: 0.011.
The same measure, in the same setting: the value for FAM210A (UniProt Q96ND0) was inactive: -0.021; that for FBXO30 (UniProt Q8TB52) was inactive: 0.001.
Regarding FKBP2 (UniProt P26885), the log2 fold change was inactive: -0.055.
On the same count and under the same terms, in the case of FKBP15 (UniProt Q5T1M5) it was inactive: -0.019; in that of FAR1 (UniProt Q8WVX9), inactive: 0.002.
On the same count and under the same terms, the value for FH (UniProt P07954) was inactive: 0.036.
Same read-out and setting: the value for FLII (UniProt Q13045) was inactive: 0.027; that for FNBP4 isoform 2 (UniProt Q8N3X1) was inactive: -0.054; that for FAM98B (UniProt Q52LJ0) was inactive: -0.014.
Regarding FBXL20 (UniProt Q96IG2), the log2 fold change is inactive: -0.04.
Consider FBXL18 isoform 4 (UniProt Q96ME1), for which the log2 fold change is inactive: 0.043.
Same read-out and setting: the value for FLYWCH2 (UniProt Q96CP2) was inactive: 0.013; that for FAM76B (UniProt Q5HYJ3) was inactive: 0.002; that for FASN (UniProt P49327) was inactive: 0.016.
For FKBP1A (UniProt P62942), the log2 fold change is inactive: 0.029.
On the same count and under the same terms, the value for FBLL1 (UniProt A6NHQ2) was inactive: -0.069.
The same measure, in the same setting: in the case of FBXO5 (UniProt Q9UKT4) it was inactive: -0.037; in that of FARSB (UniProt Q9NSD9), inactive: 0.02; in that of FLOT1 (UniProt O75955), inactive: -0.089.
Same read-out and setting: the value for FCSK isoform 2 (UniProt Q8N0W3) was inactive: 0.062; that for FBXO22 (UniProt Q8NEZ5) was inactive: 0.028; that for FN3K (UniProt Q9H479) was inactive: 0.017.
With FCGR2A (UniProt P12318), the log2 fold change is inactive: 0.067.
With FN3KRP (UniProt Q9HA64), the log2 fold change is inactive: 0.021.
FAM98A (UniProt Q8NCA5): the log2 fold change was inactive: -0.014.
In the case of FKBP9 (UniProt O95302), the log2 fold change was inactive: -0.059.
Still for that read-out and setting: the value for FAU (UniProt P62861) was inactive: -0.154; that for FKBP5 (UniProt Q13451) was inactive: 0.061.
Still for that read-out and setting: in the case of FDX2 (UniProt Q6P4F2) it was inactive: -0.06; in that of FAM32A (UniProt Q9Y421), inactive: -0.115.
